Values after ≈ are worked out from the molar mass of the structure shown.
Key:
[1] = test system: MCF-7 (breast cancer) cell line; assay: Cytotoxicity MTT assay, MCF-7 cells; format: cell-based; conditions: Homo sapiens, MCF7, 48 h, read-out: IC50 against MCF-7
Description: (§1) MCF-7 (breast cancer), NCI-H460 (lung cancer), HeLa (cervical cancer) cell lines, and BJ (normal human fibroblast) cell lines were collected from cell culture biobank (PCMD, ICCBS). DMEM medium was used for MCF-7, HeLa, and BJ, and RPMI (ATCC modified medium) was used for NCI-H460. The media was supplemented with 10% FBS, 100 IU mL^−1 of penicillin, and 100 μg mL^−1 of streptomycin, and kept at 37 °C in a 5% CO2 incubator. The inhibition was investigated by MTT assay. Briefly, 100 μL per well of cell solutions (10 × 10^4 cells per mL MCF-7 cells, 5 × 10^4 cells per mL NCI-H460 cells, 6 × 10^4 cells per mL HeLa cells, or 5 × 10^4 cells per mL BJ cells), were added into 96-well plate and incubated for 24 h at 37 °C, before treatment with 6.25–50 μM of compounds or positive control doxorubicin for 48 h. After this, 20 μL of MTT (5 mg mL^−1) was added to each well and then incubated for 4 h at 37 °C. Then 100 μL DMSO was added to each well to dissolve the purple formazan crystal. The absorbance was analyzed at 570 nm (MCF-7, NCI-H460, and HeLa) or 550 nm (BJ) using an ELISA plate reader.

[2] = test system: HeLa (cervical cancer) cell line; assay: Cytotoxicity MTT assay, HeLa cells; format: cell-based; conditions: Homo sapiens, 48 h, read-out: IC50 against HeLa cell line
Description: as §1

COc1cccc2c1C(=O)c1c(O)c3c(c(O)c1C2=O)C[C@@](O)(C(=O)CO)C[C@@H]3O[C@H]1C[C@H](N)[C@H](O)[C@H](C)O1 [doxorubicin, reference compound]
IC50 [1]: 1.2 ± 0.11 µg/mL (≈ 2.21 µM)
IC50 [2]: 0.16 ± 0.01 µg/mL (≈ 0.294 µM)

Source: publication PMC8985176, “Structural transformation of methasterone with Cunninghamella blakesleeana and Macrophomina phaseolina” (RSC Advances, 2022)
